Experimental data: PubChem BioAssay AID1671195 (Yale University, 2021)
In all, the deposit lists about 22,000 reagents; below is a part drawn at random. About 1,510 of them (6.9%) count as active. 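Active includes knockdowns raising or lowering LDL uptake; positive z-scores mean more uptake, negative mean less.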 Reagents against one gene are numbered here.

Test: 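Knockdowns that increase or decrease uptake of fluorescent LDL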 (primary screen)
System: human Huh7 hepatoma cells
Reagent: siRNA pool against human genes, 18 nM
Time to read-out: about 2 to 2.5 days of knockdown, then 8 h LDL uptake
Challenge: DiI-labelled LDL at 30 µg/ml for 8 h, in lipoprotein-deficient serum medium
Measured: 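Per-cell DiI-LDL intensity by automated imaging; well means scaled to the plate median and given as a robust z-score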
Scale: robust z-score: higher = more LDL uptake after knockdown
Call rule: 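a gene counts as active if at least two replicate z-scores exceed ±2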

no.	Target gene	pool no.	robust z-score, replicate 1	robust z-score, replicate 2	robust z-score, replicate 3	outcome
1	BTN3A3	1	0.3	0.0195	0.471	inactive
2	ZNF528-AS1	1	0.0191	0.261	0.117	inactive
3	TRIM5	1	-0.532	0.586	0.962	inactive
4	EPPIN	1	1.17	-0.164	-0.0447	inactive
5	CIB3	1	0.042	0.46	0.574	inactive
6	LOC440604 (retired record)	1	0.925	0.982	1.05	inactive
7	LAYN	1	0.379	0.244	0.74	inactive
8	IL31RA	1	-0.473	0.429	-0.216	inactive
9	TRAPPC12	1	0.773	0.802	1.3	inactive
10	DCTN5	1	-1.75	-1.26	-1.01	inactive
11	FBXL16	1	1.73	1.19	2.24	inactive
12	FAM9C	1	2.26	3.02	1.89	active
13	LIMK2	1	0.921	1.42	0.785	inactive
14	PPIH	1	1.6	0.389	0.932	inactive
15	CHD8	1	0.372	0.431	0.148	inactive
16	LOC440995 (retired record)	1	-0.185	0.592	0.347	inactive
17	EPSTI1	1	-0.529	0.134	0.17	inactive
18	CFAP410	1	-0.191	0.702	0.104	inactive
19	CACNA1G-AS1	1	1.58	1.88	1.64	inactive
20	RUSC1	1	-0.64	1.1	-1.09	inactive
21	TTC36	1	-0.357	0.137	-0.338	inactive
22	FTH1P19	1	0.837	1.43	1.02	inactive
23	BTBD8	1	1.2	-0.786	0.429	inactive
24	BTBD8	2	-1.11	-1.11	-1.11	inactive
25	MBNL3	1	-0.197	0.0251	0.07	inactive
26	DPP4	1	0.16	-0.616	-0.364	inactive
27	FLJ46230 (retired record)	1	0.232	0.0412	-0.258	inactive
28	DUSP5	1	-0.422	-0.331	-0.705	inactive
29	OR56A1	1	0.0362	-0.449	-0.948	inactive
30	STRADBP1	1	-0.052	0.0235	0.785	inactive
31	NOL4	1	-0.238	0.387	1.68	inactive
32	HSF2	1	0.169	0.24	1.02	inactive
33	SLC68A1	1	0.808	0.863	1.36	inactive
34	TMEM72	1	0.396	0.339	0.119	inactive
35	CCDC163	1	2.97	1.8	1.1	inactive
36	OPN3	1	-0.039	-0.109	-0.249	inactive
37	ATP11C	1	0.0031	0.348	-0.434	inactive
38	THAP7-AS1	1	-0.309	-0.279	-0.0188	inactive
39	BLTP1	1	-1.04	-0.64	-0.826	inactive
40	LAPTM5	1	-0.979	-0.919	-0.996	inactive
41	KCNQ5	1	0.0115	-0.53	-0.637	inactive
42	ARID2	1	1.17	0.637	-0.572	inactive
43	TLCD3A	1	0.767	1.31	1.25	inactive
44	GNG2	1	1.36	1.06	0.864	inactive
45	ZCCHC14	1	-0.358	1.69	-1.21	inactive
46	ADAMTSL2	1	-0.326	-0.908	-0.62	inactive
47	TRIM48	1	-0.488	0.959	1.21	inactive
48	SCPEP1	1	0.148	0.861	0.43	inactive
49	LOC393078 (retired record)	1	-0.79	-0.878	-1.02	inactive
50	LINS1	1	0.666	0.129	2.01	inactive
51	APH1B	1	0.0973	-0.0552	-0.228	inactive
52	APH1B	2	-0.699	0.528	-0.106	inactive
53	CHRNB4	1	-0.0713	0.612	-0.206	inactive
54	CYP2D6	1	-0.308	-0.291	-0.381	inactive
55	PROP1	1	-1.38	-1.55	-1.18	inactive
56	H4C15	1	-1.03	-1.15	-1.49	inactive
57	CLIC2	1	-0.284	-0.318	0.149	inactive
58	CPOX	1	-0.0531	0.347	0.189	inactive
59	NEK2	1	-0.614	-1.01	-0.561	inactive
60	NTSR2	1	-0.821	-0.92	-0.655	inactive
61	CCNB3	1	0.941	0.923	1.43	inactive
62	ISYNA1	1	0.202	-0.325	-0.197	inactive
63	AMIGO1	1	-0.84	-0.62	-0.273	inactive
64	EYA4	1	0.0815	0.261	0.372	inactive
65	KCNJ12	1	-1.88	-2.05	-1.8	inactive
66	NAGK	1	2.67	2.15	1.61	active
67	KBTBD3	1	1.7	1.45	1.19	inactive
68	TNK2	1	0.343	-0.356	-0.0543	inactive
69	OXER1	1	-0.811	-0.701	-0.783	inactive
70	GATA5	1	-0.133	-0.0947	-0.165	inactive
71	ADH1C	1	-0.131	-0.742	-0.898	inactive
72	ZFAS1	1	-0.0171	0.117	-0.596	inactive
73	NCOA7	1	-2.25	-1.09	-1.54	inactive
74	ZNF836	1	-0.0999	0.0795	-0.156	inactive
75	TRMU	1	-0.0353	-0.14	-0.473	inactive
76	SMO	1	0.725	0.924	0.866	inactive
77	SP7	1	-0.166	-0.512	-0.688	inactive
78	FNDC9	1	0.178	0.544	0.152	inactive
79	FBXO17	1	-0.915	0.394	0.199	inactive
80	GFRA3	1	0.226	1.01	1.14	inactive
81	KLHDC8A	1	-0.241	-0.506	-0.954	inactive
82	SLC66A1	1	1.9	1.46	1.74	inactive
83	IBSP	1	-1.1	-0.72	-0.909	inactive
84	PARP15	1	0.731	0.442	2.35	inactive
85	CDKL3	1	0.645	0.923	0.409	inactive
86	SLC22A9	1	0.797	0.41	1.11	inactive
87	CHRNA5	1	0.326	-0.0227	-0.193	inactive

Limited to “robust z-score, replicate 1”, for 5 of the entries above:
GNG2: 1.36
ZCCHC14: -0.358
ADAMTSL2: -0.326
TRIM48: -0.488
SCPEP1: 0.148
